# According to PubChem BioAssay (EPA / NIEHS):
# The chains behind the UniProt entries cited, without tags or fusion partners.
# UniProt P04637, whole entry, looked up: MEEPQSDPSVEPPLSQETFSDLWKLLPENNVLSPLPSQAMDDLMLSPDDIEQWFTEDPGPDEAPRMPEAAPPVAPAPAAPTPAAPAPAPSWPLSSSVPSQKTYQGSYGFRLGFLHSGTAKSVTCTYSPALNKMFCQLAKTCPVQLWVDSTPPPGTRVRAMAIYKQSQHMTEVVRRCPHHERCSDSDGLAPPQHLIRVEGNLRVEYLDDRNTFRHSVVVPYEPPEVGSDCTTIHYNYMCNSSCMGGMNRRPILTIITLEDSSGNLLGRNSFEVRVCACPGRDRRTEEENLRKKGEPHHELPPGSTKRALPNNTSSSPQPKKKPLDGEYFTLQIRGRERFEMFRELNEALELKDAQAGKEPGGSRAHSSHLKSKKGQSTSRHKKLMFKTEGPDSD
# “And” between values parts separate entries of the source, which are not always exact repeats. Equal entries are not always repeated. The inconclusive results got no clear call from the source; some entries with a clear call stand among them for comparison. For some assays here: Potencies beside an inconclusive call are fits to weak or partial responses and may not hold up. The source holds several records for some structures; these can differ, active in one and inactive in another. The source made the active and inactive calls. How the source made its calls: active means hit-call score of the fitted dose curve at least 0.9, where 1 is the maximum; inconclusive means response in the unintended direction; inactive means score below 0.9.
# How the values were obtained:
# [1] = Tanguay_ZF_120hpf_EYE_legacy: (Legacy) Oregon State University Tanguay Lab 120 Hour Post-fertilization zebrafish Assay for Eye Malformation (AID 2283636);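 further: binary presence or absence of eye malformation scored by brightfield in 120 hpf larvae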
# How it was run: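 5D wild-type embryos, pronase-dechorionated at 4 hpf; static exposure 6–120 hpf, 28C, dark; DMSO 0.64% final; 5uM trimethyltin chloride positive control. Binary eye-defect scoring at 120 hpf; dead embryos not scored.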
# [2] = ATG_XTT_Cytotoxicity: Cytotoxicity Assessment in the Attagene TRANS-FACTORIAL HepG2 Assay (AID 2283584);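 on AC50: XTT signal for cell number as viability in transfected HepG2 cells; cells exposed to compound for 24 h before reading; active means loss of viability signal versus DMSO baseline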
# How it was run: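 Transfect HepG2 with GAL4-UAS reporter units, dose compound, incubate 24 h, then measure viable cell number by XTT. Fit concentration response against DMSO baseline.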
# [3] = biological target: Cellular tumor antigen p53 (Homo sapiens) (UniProt P04637); assay: TOX21_p53_BLA_p2_ratio: Tox21 HCT-116 p53 Agonism Beta-lactamase Assay, Ratio, Phase 2 (AID 2283592)
# How it was run: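 Cleaved-to-uncleaved substrate ratio (460 vs 530 nm) measured in HCT116 cells with an inducible beta-lactamase reporter linked to p53 activity. Compounds incubated 16 h at 37C before 2 h room-temperature CCF4-AM loading.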
# [4] = biological target: Cellular tumor antigen p53 (Homo sapiens) (UniProt P04637); assay: TOX21_p53_BLA_p3_ratio: Tox21 HCT-116 p53 Agonism Beta-lactamase Assay, Ratio, Phase 3 (AID 2283596)
# How it was run: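 Cells were seeded at 4000/well, rested 5 h at 37C, then dosed with DMSO compound solutions (217-fold dilution) for 16 h. CCF4-AM substrate was loaded for 2 h at room temperature, and the 460/530 nm emission ratio was fitted for gain of signal versus DMSO.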
# [5] = TOX21_p53_BLA_p4_viability: Viability Assessment in the Tox21 HCT-116 p53 Agonism Beta-lactamase Assay, Phase 4 (AID 2283597);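 further: hits lower the luminescence signal meaning cytotoxicity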
# How it was run: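 Viability is taken as cellular ATP: after 16 h compound exposure of HCT116 cells and a 2 h room-temperature CCF4-AM substrate step, CellTiter-Glo reagent is added and luminescence is measured 30 min later.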
# [6] = biological target: Cellular tumor antigen p53 (Homo sapiens) (UniProt P04637); assay: TOX21_p53_BLA_p5_ratio: Tox21 HCT-116 p53 Agonism Beta-lactamase Assay, Ratio, Phase 5 (AID 2283599)
# How it was run: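 HCT-116 p53-bla cells (4000/well) plated 5 h, dosed with compound (217-fold DMSO dilution) for 16 h at 37 C; CCF4-AM substrate 2 h at room temperature. Activity is the 460/530 nm emission ratio (405 nm excitation), fitted in gain-of-signal direction versus DMSO.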
# [7] = TOX21_p53_BLA_p2_viability: Viability Assessment in the Tox21 HCT-116 p53 Agonism Beta-lactamase Assay, Phase 2 (AID 2283591);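 further: compound exposure lasted 16 h at 37 °C; actives lower the ATP signal meaning cytotoxicity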
# How it was run: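 HCT116 p53-bla cells, 4000/well, dosed after 5 h plating (217-fold dilution of DMSO stocks) and incubated 16 h at 37C. Viability taken as cellular ATP by CellTiter-Glo luminescence after 30 min RT; signal loss marks cytotoxicity.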
# [8] = TOX21_p53_BLA_p3_viability: Viability Assessment in the Tox21 HCT-116 p53 Agonism Beta-lactamase Assay, Phase 3 (AID 2283593);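 further: cells exposed to compound for 16 h before reading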
# How it was run: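 HCT116 cells, 4000/well, dosed 5 h after plating by pin transfer (217-fold dilution from DMSO stock) and incubated 16 h at 37C, 5% CO2. Viability read as ATP luminescence with CellTiter-Glo after 30 min at room temperature.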
# [9] = TOX21_p53_BLA_p5_viability: Viability Assessment in the Tox21 HCT-116 p53 Agonism Beta-lactamase Assay, Phase 5 (AID 2283600)
# How it was run: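 Viability is taken from cellular ATP content, measured by luciferase luminescence in the same wells after the beta-lactamase ratio read. Cells are seeded at 4000 per well and exposed to DMSO-dissolved compounds, diluted 217-fold, for 16 h.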
# [10] = biological target: Cellular tumor antigen p53 (Homo sapiens) (UniProt P04637); assay: TOX21_p53_BLA_p4_ratio: Tox21 HCT-116 p53 Agonism Beta-lactamase Assay, Ratio, Phase 4 (AID 2283601)
# How it was run: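 HCT-116 p53 beta-lactamase reporter cells (4000/well) preincubated 5 h, then compound (217-fold dilution of DMSO stock) for 16 h at 37C. CCF4-AM substrate added 2 h at room temperature; 460/530 nm emission ratio fitted upward versus DMSO.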
# [11] = Tanguay_ZF_120hpf_SNOU_legacy: (Legacy) Oregon State University Tanguay Lab 120 Hour Post-fertilization zebrafish Assay for Snout Malformation (AID 2283637)
# How it was run: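 Binary brightfield scoring of snout malformation at 120 hpf. Dechorionated 5D wild-type embryos, one per well, static exposure from 6 hpf at 28C, sealed and dark; final DMSO 0.64% (vol/vol), DMSO as baseline; 5uM trimethyltin chloride positive control.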
smiles,measurement,setting,value
CC(C)(c1ccc(O)cc1)c1ccc(O)cc1,AC50,[1],active: 40 µM and active: 40.1 µM
O=C(c1ccc(OCCN2CCCCC2)cc1)c1c(-c2ccc(O)cc2)sc2cc(O)ccc12,outcome,[1],inactive
CCCC1CCCC(=O)O1 (centres undefined),AC50,[2],inconclusive: 100 µM
same,AC50,[3],inconclusive: 87.3 µM
same,outcome,[4],inactive
same,AC50,[5],inconclusive: 88.6 µM
same,outcome,[6],inactive
N[C@@H](Cc1cc(I)c(Oc2ccc(O)c(I)c2)c(I)c1)C(=O)O,AC50,[7],inconclusive: 36.9 µM
same,outcome,[7],inactive
same,AC50,[3],inconclusive: 36.9 µM and active: 33.6 µM
same,outcome,[8],inactive
same,AC50,[9],inconclusive: 36.9 µM and inconclusive: 43.3 µM
same,AC50,[10],inconclusive: 36.9 µM and active: 34.8 µM
same,AC50,[1],active: 2.51 nM
CS(=O)(=O)OCCCCOS(C)(=O)=O,AC50,[7],inconclusive: 86.9 µM
same,outcome,[7],inactive
same,AC50,[8],active: 2.31e-05 µM
same,AC50,[5],inconclusive: 9.17 µM
same,outcome,[5],inactive
same,AC50,[6],inconclusive: 46.1 µM and inconclusive: 46.2 µM
same,AC50,[9],inconclusive: 0.607 nM
same,outcome,[9],inactive
same,AC50,[10],inconclusive: 23 µM
same,outcome,[11],inactive
O=C(c1ccc(O)cc1O)c1ccc(O)cc1O,AC50,[7],inconclusive: 85.9 µM and inconclusive: 46.1 µM
same,AC50,[3],active: 73.1 µM
same,AC50,[8],inconclusive: 85.5 µM and inconclusive: 20.3 µM
same,AC50,[4],active: 73.8 µM and active: 73.3 µM
same,AC50,[5],inconclusive: 76.3 µM and inconclusive: 46.1 µM
same,AC50,[6],active: 76.4 µM and active: 74.5 µM
same,AC50,[9],inconclusive: 71.7 µM and inconclusive: 50.3 nM
C=C(C)C(=O)OCC(C)C,AC50,[7],inconclusive: 46.6 µM
same,AC50,[3],inconclusive: 46.1 µM and inconclusive: 46.6 µM
same,AC50,[8],inconclusive: 46.6 µM
same,outcome,[8],inactive
same,AC50,[4],inconclusive: 46.6 µM
same,AC50,[5],inconclusive: 46.1 µM and inconclusive: 46.6 µM
same,AC50,[9],inconclusive: 46.1 µM and inconclusive: 2.88 µM
NCCOCCO,AC50,[7],inconclusive: 46.1 µM and inconclusive: 46.3 µM
same,outcome,[3],inactive
same,AC50,[8],inconclusive: 46.3 µM
same,outcome,[8],inactive
same,AC50,[5],inconclusive: 46.1 µM
same,outcome,[5],inactive
same,AC50,[6],inconclusive: 46.3 µM
same,AC50,[9],inconclusive: 46.1 µM and inconclusive: 0.159 nM
same,AC50,[10],inconclusive: 46.3 µM
CC(=O)CCC=C(C)CCC=C(C)C,outcome,[7],inactive
same,AC50,[3],inconclusive: 46.1 µM
same,AC50,[8],inconclusive: 46.1 µM and inconclusive: 46.3 µM
same,AC50,[5],inconclusive: 77 µM
same,outcome,[5],inactive
same,AC50,[6],inconclusive: 35.7 µM
same,AC50,[9],inconclusive: 46300 nM
CC=C1CC2C=CC1C2 (centres undefined),AC50,[7],inconclusive: 46.1 µM and inconclusive: 1.32 µM
same,AC50,[3],inconclusive: 46.1 µM
same,outcome,[8],inactive
same,outcome,[4],inactive
same,AC50,[5],inconclusive: 44.9 µM
same,AC50,[6],inconclusive: 44.9 µM
same,outcome,[6],inactive
same,AC50,[10],inconclusive: 71.2 µM
C[C@]12C=CC(=O)C=C1CC[C@H]1[C@@H]3C[C@@H](O)[C@](O)(C(=O)CO)[C@@]3(C)C[C@H](O)[C@@]12F,outcome,[7],inactive
same,outcome,[3],inactive
same,AC50,[8],inconclusive: 46.1 µM
same,AC50,[4],inconclusive: 23 µM
same,AC50,[6],inconclusive: 46.1 µM
same,AC50,[9],inconclusive: 46.1 µM and inconclusive: 23 µM
same,AC50,[10],inconclusive: 46.1 µM
COC(OC)C(C)c1ccccc1 (centres undefined),outcome,[2],inactive
same,AC50,[8],inconclusive: 0.00663 µM
same,outcome,[5],inactive
same,outcome,[6],inactive
same,outcome,[9],inactive
CO[Si](C)(OC)c1ccccc1,outcome,[7],inactive
same,outcome,[3],inactive
same,outcome,[8],inactive
same,outcome,[5],inactive
same,AC50,[6],inconclusive: 76.7 µM
CCCOC(=O)c1ccc(O)cc1,AC50,[7],inconclusive: 0.0198 µM
same,outcome,[7],inactive
same,outcome,[4],inactive
same,outcome,[5],inactive
same,outcome,[10],inactive
NCCN1CCNCC1,AC50,[2],inconclusive: 100 µM
same,outcome,[8],inactive
same,AC50,[4],inconclusive: 46.6 µM
same,AC50,[5],inconclusive: 46.6 µM
same,AC50,[9],inconclusive: 108 nM
same,outcome,[9],inactive
same,outcome,[10],inactive
Nc1ccc(Cl)cc1Cl,AC50,[2],inconclusive: 100 µM
same,AC50,[3],inconclusive: 45.7 µM
same,AC50,[8],inconclusive: 45.7 µM
same,AC50,[5],inconclusive: 45.7 µM
same,AC50,[9],inconclusive: 46.1 µM and inconclusive: 45.7 µM
same,outcome,[10],inactive

# An excerpt of these results, with bars between the fields.
smiles | measurement | setting | value
CS(=O)(=O)OCCCCOS(C)(=O)=O | AC50 | [7] | inconclusive: 86.9 µM
same | outcome | [7] | inactive
same | AC50 | [8] | active: 2.31e-05 µM
same | AC50 | [5] | inconclusive: 9.17 µM
